We go through 45 substances from patent US10525115B2 (Immatics Biotechnologies GmbH, priority 2014, dated 2020).

The test system of data set [1] is primary AML samples. Briefly: HLA class I ligandome analysis (W6/32 immunoaffinity purification, LC-MS/MS) of primary AML samples. Also noted: species or system human. Conditions: HLA class I ligandome, AML patients (n=15); count for the HLA ligand (LiTAP) or, on protein lines, for the source protein (LiTAA).
Data set [2] concerns cancer tissues in comparison to non-cancerous tissues and organs. Briefly: Presentation profile / over-presentation by label-free LC-MS (XPRESIDENT), tumor versus normal tissues, other proliferative diseases. The note with it: other proliferative diseases / organs (other than AML) that over- or exclusively present the peptide; Table 5. Details: species or system human.

In the case of “3 (HHDESVLTNVF; listed as Homo sapiens) [compound 3]”, the “Number of positive AMLs” value in data set [1] worked out at 3. Further, in data set [2], the “Proliferative disease and location thereof” value is “colon or rectum, lung, small cell carcinoma”.
Turning to “4 (REQDEAYRL; listed as Homo sapiens) [compound 4]”, in data set [1], the “Number of positive AMLs” value was determined as 1. Besides, the “Proliferative disease and location thereof” value in data set [2] is reported as “colon or rectum, lung, small cell carcinoma”.
Take “5 (RPVMPSRQI; listed as Homo sapiens) [compound 5]”: the “Number of positive AMLs” value in data set [1] is on record as 1. In addition, the “Proliferative disease and location thereof” value in data set [2] was “colon or rectum, lung, small cell carcinoma”.
Regarding “6 (VQREYNLNF; listed as Homo sapiens) [compound 6]”, in data set [1], the “Number of positive AMLs” value was determined as 1. In data set [2], the “Proliferative disease and location thereof” value is listed as “colon or rectum, lung, small cell carcinoma”.
With “7 (GQLPITIQV; listed as Homo sapiens) [compound 7]”, the “Number of positive AMLs” value in data set [1] is recorded as 1. In data set [2], the “Proliferative disease and location thereof” value is “kidney, clear cell renal cell carcinoma, bone, non- ossifying fibroma”.
As to “8 (RAYADEVAV; listed as Homo sapiens) [compound 8]”, the “Number of positive AMLs” value in data set [1] was found to be 1. Further, the “Proliferative disease and location thereof” value in data set [2] is “kidney, clear cell renal cell carcinoma, bone, non- ossifying fibroma”.
As to “9 (REDKPPLAV; listed as Homo sapiens) [compound 9]”, the “Number of positive AMLs” value in data set [1] is 1. Besides, the “Proliferative disease and location thereof” value in data set [2] is “kidney, clear cell renal cell carcinoma, bone, non- ossifying fibroma”.
With “10 (RVKDLDTEKY; listed as Homo sapiens) [compound 10]”, in data set [1], the “Number of positive AMLs” value is 2. The “Proliferative disease and location thereof” value in data set [2] is given as “kidney, clear cell renal cell carcinoma, bone, non- ossifying fibroma”.
Take “11 (SEQEMNAHL; listed as Homo sapiens) [compound 11]”: the “Number of positive AMLs” value in data set [1] came to 1. Also, in data set [2], the “Proliferative disease and location thereof” value is “kidney, clear cell renal cell carcinoma, bone, non- ossifying fibroma”.
For “12 (YVLPLVHSL; listed as Homo sapiens) [compound 12]”, the “Number of positive AMLs” value in data set [1] is 1. In addition, the “Proliferative disease and location thereof” value in data set [2] is listed as “kidney, clear cell renal cell carcinoma, bone, non- ossifying fibroma”.
Regarding “13 (LPLRFWVNI; listed as Homo sapiens) [compound 13]”, the “Number of positive AMLs” value in data set [1] stood at 1. Besides, the “Proliferative disease and location thereof” value in data set [2] is recorded as “liver, hepatocellular carcinoma, cancer, pancreas, adenocarcinoma”.
For “14 (EVAEHVQYM; listed as Homo sapiens) [compound 14]”, the “Number of positive AMLs” value in data set [1] stood at 3. Also, the “Proliferative disease and location thereof” value in data set [2] is “colon or rectum, prostate, benign nodular; hyperplasia”.
As to “15 (YMAELIERL; listed as Homo sapiens) [compound 15]”, the “Number of positive AMLs” value in data set [1] is reported as 3. For the same substance, the “Proliferative disease and location thereof” value in data set [2] is recorded as “colon or rectum, prostate, benign nodular; hyperplasia”.
Regarding “16 (ALASLIRSV; listed as Homo sapiens) [compound 16]”, the “Number of positive AMLs” value in data set [1] is listed as 5. The “Proliferative disease and location thereof” value in data set [2] is “thyroid gland, nodular hyperplasia”.
For the substance “17 (TVAEITGSKY; listed as Homo sapiens) [compound 17]”, the “Number of positive AMLs” value in data set [1] amounted to 1. Besides, in data set [2], the “Proliferative disease and location thereof” value is “thyroid gland, nodular hyperplasia”.
Take “18 (EIIGKRGIIGY; listed as Homo sapiens) [compound 18]”: in data set [1], the “Number of positive AMLs” value is on record as 4. Also, the “Proliferative disease and location thereof” value in data set [2] is “colon or rectum, kidney, carcinoma”.
For the substance “19 (NLVEKTPAL; listed as Homo sapiens) [compound 19]”, in data set [1], the “Number of positive AMLs” value is on record as 1. Besides, the “Proliferative disease and location thereof” value in data set [2] was “colon or rectum, kidney, carcinoma”.
On the same counts, the results for “20 (IEDKAQILL; listed as Homo sapiens) [compound 20]” are 3 and “malignant fibrous histiocytoma”.
As to “21 (SIYDDSYLGY; listed as Homo sapiens) [compound 21]”, the “Number of positive AMLs” value in data set [1] stood at 1. The “Proliferative disease and location thereof” value in data set [2] was “malignant fibrous histiocytoma”.
Take “23 (NAAILKKV; listed as Homo sapiens) [compound 23]”: the “Number of positive AMLs” value in data set [1] worked out at 2. Moreover, the “Proliferative disease and location thereof” value in data set [2] is “brain, glioblastoma, thyroid gland, nodular; hyperplasia”.
In the case of “24 (NYLDIKGLL; listed as Homo sapiens) [compound 24]”, the “Number of positive AMLs” value in data set [1] turned out to be 1. Also, the “Proliferative disease and location thereof” value in data set [2] was “brain, glioblastoma, thyroid gland, nodular; hyperplasia”.
For the substance “25 (YLDIKGLLDV; listed as Homo sapiens) [compound 25]”, the “Number of positive AMLs” value in data set [1] is on record as 2. In addition, the “Proliferative disease and location thereof” value in data set [2] is given as “brain, glioblastoma, thyroid gland, nodular; hyperplasia”.
For “29 (DEFITVHSM; listed as Homo sapiens) [compound 29]”, in data set [1], the “Number of positive AMLs” value came to 1. Also, in data set [2], the “Proliferative disease and location thereof” value is “stomach, skin, basal cell carcinoma”.
Regarding “30 (EFITVHSML; listed as Homo sapiens) [compound 30]”, in data set [1], the “Number of positive AMLs” value is 2. Also, the “Proliferative disease and location thereof” value in data set [2] is listed as “stomach, skin, basal cell carcinoma”.
On to “31 (GQLDVRELI; listed as Homo sapiens) [compound 31]”, for which the “Number of positive AMLs” value in data set [1] came to 1. In addition, the “Proliferative disease and location thereof” value in data set [2] was “stomach, skin, basal cell carcinoma”.
With “32 (TQYIIHNY; listed as Homo sapiens) [compound 32]”, the “Number of positive AMLs” value in data set [1] was 1. In data set [2], the “Proliferative disease and location thereof” value was “stomach, skin, basal cell carcinoma”.
Turning to “33 (EVVDVTWRY; listed as Homo sapiens) [compound 33]”, the “Number of positive AMLs” value in data set [1] was determined as 4. Moreover, the “Proliferative disease and location thereof” value in data set [2] was “colon or rectum, lymph node, non-Hodgkin's; lymphoma”.
With “34 (KEALLRDTI; listed as Homo sapiens) [compound 34]”, the “Number of positive AMLs” value in data set [1] is 1. Besides, the “Proliferative disease and location thereof” value in data set [2] was “colon or rectum, lymph node, non-Hodgkin's; lymphoma”.
As for “35 (HGYENPTYK; listed as Homo sapiens) [compound 35]”, in data set [1], the “Number of positive AMLs” value worked out at 4. The “Proliferative disease and location thereof” value in data set [2] is recorded as “lung, non-small cell lung carcinoma, kidney, carcinoma”.
With “36 (SLLYKVPYV; listed as Homo sapiens) [compound 36]”, in data set [1], the “Number of positive AMLs” value came to 1. In addition, the “Proliferative disease and location thereof” value in data set [2] was “lung, non-small cell lung carcinoma, kidney, carcinoma”.
“37 (AEIPLRMV; listed as Homo sapiens) [compound 37]”: in data set [1], the “Number of positive AMLs” value is 1. In data set [2], the “Proliferative disease and location thereof” value is on record as “stomach, metastatic, adenocarcinoma”.
For the substance “38 (EVVYRFTAR; listed as Homo sapiens) [compound 38]”, the “Number of positive AMLs” value in data set [1] is 1. The “Proliferative disease and location thereof” value in data set [2] was “stomach, metastatic, adenocarcinoma”.
On to “39 (FPGLAIKI; listed as Homo sapiens) [compound 39]”, for which the “Number of positive AMLs” value in data set [1] is recorded as 2. For the same substance, the “Proliferative disease and location thereof” value in data set [2] is on record as “stomach, metastatic, adenocarcinoma”.
For the substance “40: peptide found in KIF2C (gene looked up) (IYNGKLFDL; listed as Homo sapiens) [compound 40]”, the “Number of positive AMLs” value in data set [1] is 1. For the same substance, in data set [2], the “Proliferative disease and location thereof” value is given as “stomach, metastatic, adenocarcinoma”.
Regarding “41: peptide found in KIF2C (gene looked up) (IYNGKLFDLL; listed as Homo sapiens) [compound 41]”, the “Number of positive AMLs” value in data set [1] was determined as 1. Moreover, the “Proliferative disease and location thereof” value in data set [2] is given as “stomach, metastatic, adenocarcinoma”.
Consider “42 (KEIDVISI; listed as Homo sapiens) [compound 42]”, for which, in data set [1], the “Number of positive AMLs” value is listed as 1. For the same substance, the “Proliferative disease and location thereof” value in data set [2] is on record as “stomach, metastatic, adenocarcinoma”.
Take “43 (LEEQASRQI; listed as Homo sapiens) [compound 43]”: the “Number of positive AMLs” value in data set [1] amounted to 1. Besides, the “Proliferative disease and location thereof” value in data set [2] is “stomach, metastatic, adenocarcinoma”.
On to “44 (TRMSTVSEL; listed as Homo sapiens) [compound 44]”, for which, in data set [1], the “Number of positive AMLs” value was 1. Moreover, the “Proliferative disease and location thereof” value in data set [2] is “stomach, metastatic, adenocarcinoma”.
Take “45 (SEETFRFEL; listed as Homo sapiens) [compound 45]”: the “Number of positive AMLs” value in data set [1] was determined as 1. Also, the “Proliferative disease and location thereof” value in data set [2] is recorded as “stomach, adenocarcinoma, endometrium, adenocarcinoma”.
As to “46 (KLYPTLVIR; listed as Homo sapiens) [compound 46]”, in data set [1], the “Number of positive AMLs” value is 4. The “Proliferative disease and location thereof” value in data set [2] is “stomach, adenocarcinoma, endometrium, adenocarcinoma”.
On to “47 (ALRNQATMVQK; listed as Homo sapiens) [compound 47]”, for which the “Number of positive AMLs” value in data set [1] was 2. Also, the “Proliferative disease and location thereof” value in data set [2] was “stomach, adenocarcinoma, non-Hodgkin's; lymphoma, mycosis fungoides”.
Take “48 (LLDHAPPEI; listed as Homo sapiens) [compound 48]”: the “Number of positive AMLs” value in data set [1] came to 3. Moreover, the “Proliferative disease and location thereof” value in data set [2] was “stomach, adenocarcinoma, non-Hodgkin's; lymphoma, mycosis fungoides”.
For the substance “49 (GVLGTVVHGK; listed as Homo sapiens) [compound 49]”, the “Number of positive AMLs” value in data set [1] worked out at 4. The “Proliferative disease and location thereof” value in data set [2] is listed as “colon or rectum, liver, focal nodular hyperplasia”.
On to “50 (VQFIGRESKY; listed as Homo sapiens) [compound 50]”, for which the “Number of positive AMLs” value in data set [1] was 1. For the same substance, the “Proliferative disease and location thereof” value in data set [2] is recorded as “colon or rectum, liver, focal nodular hyperplasia”.
“51 (GQSLIHVI; listed as Homo sapiens) [compound 51]”: the “Number of positive AMLs” value in data set [1] stood at 1. Further, the “Proliferative disease and location thereof” value in data set [2] is “parathyroid gland, adenoma”.
